## Results of single-concentration screens

From ChEMBL document CHEMBL3988442, “University of Dundee, Small-Polar-MMV Screening Library” (2021).

Results are given as percent effect.
The controls that fix the scale are not given in the record; negative values are as filed.
Compounds were drawn at random from those tested, without regard to their results.
Two or more numbers in one place are separate tests of the same structure; such repeats can differ widely.

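Growth of Mycobacterium tuberculosis over 4 days (cholesterol / DPPC medium with tyloxapol); the read-out is not stated. Compounds at 50 µM. Higher reads as more growth inhibition (inferred: compounds with an IC50 in retests scored well above the rest). Of about 69,000 compounds tested this way, about 370 (0.54%) reached 50% or more in at least one test.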

Compound | percent effect
COc1ccc(Cl)cc1CCNC(=O)N(C)CC1CCOC1 (stereo unspecified) | 15.48
O=C(O)C(F)(F)F.[H][C@@]12COC[C@@H](CC(=O)N3CCCCO3)[C@]1([H])CN(C1CCCC1)C2 | -22.07
O=C(c1ccc(C(F)(F)F)nc1)N1CCCC(n2cncn2)C1 (stereo unspecified) | 4.487
CC(O)CN1CCC(CN(C)Cc2cccc(C(=O)N(C)C)c2)CC1 (stereo unspecified) | -33.38
NC(=O)c1ccc(C(=O)N2CCCC(n3ccnc3)C2)s1 (stereo unspecified) | -0.1578
COC1CCCN(CCCc2cn[nH]c2)C1 (stereo unspecified) | 5.937
COCCn1cc2c(n1)C(CNS(C)(=O)=O)OCC2 (stereo unspecified) | 0.08473
Cc1c[nH]nc1C1CCCCN1C(=O)CNS(C)(=O)=O (stereo unspecified) | -16.9
CN1CCN(S(=O)(=O)c2ccccc2)Cc2cccnc21.O=C(O)C(F)(F)F | -20.8
CN(C)c1cc(C(=O)N2CCCC2)ccn1 | 32.56
CCS(=O)(=O)Cc1ccn(-c2cccc(F)c2)n1 | 1.291
CC(C)CC1SCC(=O)Nc2c1cnn2C(C)C (stereo unspecified) | 15.5
Fc1ccc(CN2CCCC2c2cncc(-n3ccnc3)n2)cc1 (stereo unspecified) | 8.594
CC(=O)NC1CCCN(c2ccc(C#N)cc2C(F)(F)F)C1 (stereo unspecified) | -2.934
O=C(O)C(F)(F)F.[H][C@@]12CN(CC3CC3)C[C@]1([H])[C@@H](OC)CCN2C(=O)c1ccsc1 | 6.181
CCN1CC2(CC1=O)CN(Cc1ccoc1)CCN(C(=O)C(C)C)C2 (stereo unspecified) | -14.74
CO[C@H]1C[C@@H](O)C12CCN(C(=O)NCc1ccco1)CC2 | -27.47
FC(F)(F)Cn1nnnc1SCCN1CCCCC1 | 8.226
CCc1nc2c(NCC3COc4ccccc4C3)ncnc2o1 (stereo unspecified) | 7.144
CC(C)c1nn(C)c(N(C)C)c1CNC1CCN(CC2CC2)CC1 | 7.628
CS(=O)(=O)N[C@H]1CCO[C@]2(CCN(CC3CCOCC3)C2)C1.O=C(O)C(F)(F)F | -4.755
[H][C@]12CCN(C(=O)Cc3ccc4c(c3)CCCC4)CC[C@]1([H])N(C)C(=O)CO2 | 3.611 & 3.375
Cc1nn(C)c(C)c1C1CCCN1C(=O)c1ccc(N(C)C)nc1 (stereo unspecified) | 17.72
O=C(O)C(F)(F)F.[H][C@@]12CCN(C3CCCCC3)[C@]1([H])CC[C@H](C(=O)N1CCOCC1)O2 | 9.851
[H][C@]12CN(Cc3cc(F)cc(F)c3)CC[C@@]1(O)CCN(S(=O)(=O)N(C)C)C2 | -5.854
Cc1cccnc1CNC(=O)N(CCCO)C1CCc2ccccc21 (stereo unspecified) | 11.13
Cc1cc(CN2CCC3(CC2)C(=O)NCCN3CC2CC2)oc1C | -4.624
COc1ccc(CN2CCN(C(=O)c3ccc(C)n3C)CC2)cc1 | 16.48
COCc1c(C(=O)O)nnn1Cc1cccc(C(F)(F)F)c1 | -9.762
CCOc1ccc(Cl)c(C(=O)NC(C)C(N)=O)n1 (stereo unspecified) | 22.07
COCCO[C@H]1CCN(C(=O)c2ccoc2C)[C@H]1Cc1cnn(C)c1 | -26.12
COc1cccc(CCC2CCCN(C(=O)c3ccc(=O)n(C)n3)C2)c1 (stereo unspecified) | 4.155
CS(=O)(=O)c1cc(Cl)cnc1C1CCN(C(=O)C2CCCO2)CC1 (stereo unspecified) | 8.616 & 7.519
[H][C@]12CC[C@@]3(N=C(C)N(CC(C)C)C3=O)[C@@]1([H])CN(C(=O)NCC(C)C)C2 | -10.84
Cc1nn(C)c(Cl)c1C1CCCN1C(=O)c1ccnn1C (stereo unspecified) | 3.124
CCOc1cc(C)nc(N2CCN(Cc3nccn3C)CC2)n1 | 9.267
Cc1nn(C)c(N(C)C)c1CNC1CCc2c(F)cccc21.Cl (stereo unspecified) | -23.56
CCn1nc(C)c(C(C)Nc2cc(C3CCNCC3)nc(C)n2)c1C (stereo unspecified) | -14.3
COc1c(C(=O)NCC(C)C)nnn1Cc1ccccc1 | 12.06
O=C(CNC(=O)C1(c2ccc(F)cc2F)CCC1)Nc1cccnc1 | -6.704
NC(=O)c1ccc(NC(=O)c2ccncc2Cl)cn1 | -2.591
Cc1cc2n(n1)CC(CNC1CCN(CCc3ccccc3)CC1)CN2 (stereo unspecified) | 10.72
CC(C)N1C[C@H](O)C[C@H]1c1nc(-c2ccc(OC(F)(F)F)cc2)no1 | -11.97
N#Cc1cccc(C(=O)N2CCc3ncc(Cn4cccn4)n3CC2)c1 | -3.127
Cc1cnccc1NCCNC(=O)[C@H]1CNC[C@H](C(=O)N2CCCC2)C1 | 8.604
O=C(Nc1ccc(F)c(Cl)c1)N1CCCN([C@H]2COC[C@@H]2O)CC1 | 0.7283
CCn1ccnc1CN1CCCC1c1noc(C2CC2)n1 (stereo unspecified) | -15.63
Cn1ccc(N2CCCC(NC(=O)c3ccc(Cl)o3)C2=O)n1 (stereo unspecified) | 0.6973
c1nc2c(c(NCCCn3cncn3)n1)CCN(CC1CCOC1)CC2 (stereo unspecified) | 7.612
Cc1ccc(NC2COC3(CCN(Cc4ccn(C)n4)CC3)C2)nn1.O=C(O)C(F)(F)F (stereo unspecified) | 15.24
CC(=O)N1CCCN(CCCSCc2ccccc2)CC1 | -9.357
CC(=O)NC1CCCN(C(=O)NCc2cccnc2)C1 (stereo unspecified) | -5.323
Cc1ncncc1C(=O)N1CCOC(c2nc(C(C)C)n[nH]2)C1 (stereo unspecified) | -14.94
CC(C)[C@H]1CN(CCCO)C[C@@H]1NC(=O)CCC(F)(F)F | 11.63
CNC(=O)CN1C(=O)CCC12CCCN(CCc1ccccc1)C2 (stereo unspecified) | 19.06
CCNC(=O)NC(=O)C(C)Nc1ccccc1OCCOC (stereo unspecified) | 11.74
O=C(NCC1CC1)C1CCC2(CCN(C(=O)c3ccccn3)CC2)O1.O=C(O)C(F)(F)F (stereo unspecified) | 1.786
CCCOCC(=O)N1CCc2c(cccc2S(=O)(=O)N2CCOCC2)C1 | -18.12
CCn1ncc2c1C(COCC1CC1)CN(C(=O)c1cccs1)C2 (stereo unspecified) | -35.03
O=C(NC1CCN(C2CC2)C1)c1cn(-c2ccc(F)cc2)nn1 (stereo unspecified) | 5.488
c1ccc(C2CCN(c3cncc(-n4cccn4)n3)CC2)cc1 | -1.687 & -5.355
CN1C[C@@H](O)[C@]2(CCN(C(=O)c3ccccc3)C2)S1(=O)=O | -12.17
COc1ccc(C(=O)C2CCCN(Cc3ccon3)C2)c(OC)c1 (stereo unspecified) | 24.01
Cc1ncsc1CCC(=O)NCc1cc2n(n1)CCNC2 | -8.664
Cc1c(C(C)NC2CCOCC2)cnn1-c1ccc(F)cc1F (stereo unspecified) | 17.82
CCc1[nH]c2c(CNc3nccc(N)n3)cc(C)cc2c1C | 20.01
CC(C)c1cc(NC(=O)CN2CCNC(=O)C2)on1 | -32.56
COCC(=O)N[C@@H]1CN(Cc2c[nH]nc2-c2cccs2)C[C@H]1O | 4.039 & -6.529
CCCn1c(N2CCCC(C)C2)nc2c(C)nn(C)c2c1=O (stereo unspecified) | 17.57

For reference, 6 entries once more:

Compound	percent effect
O=C(NC1CCN(C2CC2)C1)c1cn(-c2ccc(F)cc2)nn1 (stereo unspecified)	5.488
Cc1c(C(C)NC2CCOCC2)cnn1-c1ccc(F)cc1F (stereo unspecified)	17.82
CC(=O)NC1CCCN(C(=O)NCc2cccnc2)C1 (stereo unspecified)	-5.323
O=C(NCC1CC1)C1CCC2(CCN(C(=O)c3ccccn3)CC2)O1.O=C(O)C(F)(F)F (stereo unspecified)	1.786
Fc1ccc(CN2CCCC2c2cncc(-n3ccnc3)n2)cc1 (stereo unspecified)	8.594
O=C(O)C(F)(F)F.[H][C@@]12CCN(C3CCCCC3)[C@]1([H])CC[C@H](C(=O)N1CCOCC1)O2	9.851